{
  "source": "patent US6545019B2",
  "about": "“Method of modulating microglial activation for the treatment of acute and chronic neurodegenerative disorders” (Bristol-Myers Squibb Company, priority 2000, dated 2003)",
  "key": {"[1]": {"system": "LPS activated rat microglia cells", "assay": "TNF-alpha release from LPS activated rat primary microglia (ELISA)", "assay_type": "cell-based", "settings": "100 ng/ml LPS, compound 1 hr before LPS, supernatant 24 hrs post-LPS", "description": "(§1) Rat microglia were prepared from two day old rat pups. Pup brains were removed and the meninges were gently removed. Once sufficient amount of brains were collected, brains were minced with a blunt scissors (10 times) and transferred to a 15ml conical tube with a pasteur pipette and titurated 25 times. Dissociated cells were then centrifuged at 1000 RPM for 10 minutes (RT). The supernatant was removed and 2 mls of fresh media was added. The resultant cell suspension was titurated 10 times. Following titration the cell suspension was plated in a T175 cm^2 culture flasks at a density of 4 brains per flask in 25 mls. MEM media was used for the experiments, supplemented with 10% FBS, 100 i.u.penicillin, 100 i.u.streptomycin and L-Glutamine. Microglia were isolated on day 14 by shaking on an orbital rotation shaker. The purity of the cultures was 98-100% as determined by immunostaining with ED-40 antibody.\nEndotoxin (LPS) at a concentration of a 100 ng/ml were used for activation of rat microglia cells. This concentration had previously shown to be effective in inducing TNF-alpha and Nitrite release. All assays were performed in 48 well plates (Becton Dickinson) at ˜2×10^5 cells or 0.5×10^5 per 1 ml per well in 10% MEM media. […]"}, "[2]": {"system": "LPS activated rat microglia cells", "assay": "Nitrite (NO) release from LPS activated rat primary microglia (Modified Griess Reagent)", "assay_type": "cell-based", "settings": "100 ng/ml LPS, compound 1 hr before LPS, supernatant 24 hrs post-LPS", "description": "as §1\nEndotoxin (LPS) at a concentration of a 100 ng/ml were used for activation of rat microglia cells. This concentration had previously shown to be effective in inducing TNF-alpha and Nitrite release. […]\nNitrite assay was performed in a 96 well plate using a Modified Griess Reagent (Sigma). […] Samples were read at a wavelength of 540nm. All values were calculated against a NaNO2 standard curve."}},
  "note": "At least one structure is not confirmed: it was looked up by name or label, or the drawing left a doubt.",
  "data": [
    {"smiles": "Cc1ccc(-c2cc(C(F)(F)F)nn2-c2ccc(S(N)(=O)=O)cc2)cc1", "note": "[celecoxib]", "values": [
      {"measurement": "TNF-alpha release", "setting": "[1]", "value": "failed to produce any reduction in TNF-alpha release"},
      {"measurement": "nitrite (NO) release", "setting": "[2]", "value": "had no effect on nitrite release"}
    ]}
  ]
}
